From PubChem BioAssay AID1487 (National Center for Advancing Translational Sciences (NCATS), 2009)
Some of the results follow. Further columns of the screen follow, without active or inactive calls. Most of these compounds were active or inconclusive in the main read-out, so they are no random draw. Potencies come from curve fits of mixed quality, noted in brackets.

Experiment: qHTS Assay for Modulators of Lamin A Splicing
Settings: HeLa LMNA splicing GFP/RFP minigene ratio, 48 h
How it was run: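 S3 HeLa stable clones carrying a lamin A-EGFP splicing minigene plus DsRed2 were seeded at 600 cells/well in Opti-MEM with 2% FBS, pin-dosed and incubated 48 h at 37°C. Acumen cytometry (488 nm) gave the GFP/RFP total-intensity ratio.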

[1] = measured here: GFP splicing reporter channel
[2] = measured here: RFP viability control channel

## Cc1ccc(S(=O)(=O)C(C)C(=O)NCCS(=O)(=O)c2ccc(Cl)cc2)cc1 (stereo not given)
[1]
  AC50: 3.16 µM [falling, single point]
[2]
  AC50: 14.1 µM [falling, single point]

## O=c1cc(O)nc(SCc2ccccc2)n1-c1ccc(Cl)cc1
[1]
  AC50: 4.47 µM [rising, single point]
[2]
  AC50: 5.01 µM [rising, partial curve]

## CS(=O)(=O)Nc1ccc([N+](=O)[O-])cc1Oc1ccccc1
[1]
  AC50: 1.12 µM [falling, single point]

## COc1ccc(NC(=O)c2sc(N3CCOCC3)nc2-c2ccccc2)c(OC)c1
[1]
  AC50: 35.5 µM [rising, single point]
[2]
  AC50: 31.6 µM [rising, partial curve]

## O=C(Cc1cn(Cc2cccc(Cl)c2)c2ccccc12)N1CCCCCC1
[2]
  AC50: 35.5 µM [rising, single point]

## COc1ccc(C(=O)NCCN2CCOCC2)c(OC)c1
[2]
  AC50: 0.0891 µM [rising, full curve, poor fit]

## CN1CCN(NC(=O)c2ccc(Cl)s2)CC1
[2]
  AC50: 0.0447 µM [falling, full curve, poor fit]

## Nc1ccccc1OCP(=O)(c1ccccc1)c1ccccc1
[2]
  AC50: 4.47 µM [falling, partial curve, poor fit]

## CCn1cc(C(=O)O)c(=O)c2cc(F)c(N3CCNC(C)C3)c(F)c21 (stereo not given)
[1]
  AC50: 0.002 µM [rising, full curve, poor fit]

## NC(=O)c1cc[n+](CC2=C(C(=O)O)N3C(=O)[C@@H](NC(=O)C(c4ccccc4)S(=O)(=O)[O-])[C@H]3SC2)cc1 (stereo not given in full)
[2]
  AC50: 0.794 µM [rising, partial curve, poor fit]

## Cc1ccc(NC(=O)c2c(C)oc3c2C2=NCCN2C=N3)cc1F
[1]
  AC50: 20 µM [falling, partial curve]

## O=c1ccc2c(OCCCCc3ccccc3)c3ccoc3cc2o1
[1]
  AC50: 14.1 µM [falling, single point]
[2]
  AC50: 5.62 µM [falling, single point]

## CCc1nc(SCC(=O)N2CCN(C(=O)c3ccco3)CC2)c2c3c(sc2n1)CCCC3
[1]
  AC50: 14.1 µM [rising, single point]
[2]
  AC50: 15.8 µM [rising, single point]

## CC1CN(C(=O)c2cccn(Cc3c(Cl)cccc3Cl)c2=O)CC(C)O1 (stereo not given)
[1]
  AC50: 0.708 µM [falling, full curve, poor fit]

## CN(CC(=O)NCc1ccc(F)cc1)S(=O)(=O)c1ccc2[nH]c3c(c2c1)CCCC3
[1]
  AC50: 5.01 µM [falling, partial curve, poor fit]
